Test [1] deals with Desmoglein 2 (human (endogenous in Caco-2/TC7)) (UniProt Q14126). Briefly: co-IP.
The target in test [2] is cellular prion protein PrP^c (human (endogenous in Caco-2/TC7)) (UniProt P04156). Description: co-IP.

Results are given in words; binding and its absence hold for the method and conditions named. In cells and extracts the contact can be indirect. Some entries that bind do so weakly or less than the wild type.

The source of these data is article PMC2500194.

“cellular prion protein PrP^c (from UniProt P04156 23-230)”: in test [1], the binding result is recorded as “binds”.

As to annexin A2 (from UniProt P07355 1-339), the binding entry in test [2] is “binds”.
